Drawing on article PMC11844899, this text covers binding for two molecules.

No constants are given. Whether binding was seen depends on the method and setting. Binding seen in cells or lysates may run through a third protein. Some binding calls cover weakened binding; strength is not graded here. For part of these data: Sequences can lack the tags named with a protein.

The target of test [1] is T1, mouse ZBP1 (mZBP1) expressed in HT29 cells (mouse), Q9QY24.
T1 chain: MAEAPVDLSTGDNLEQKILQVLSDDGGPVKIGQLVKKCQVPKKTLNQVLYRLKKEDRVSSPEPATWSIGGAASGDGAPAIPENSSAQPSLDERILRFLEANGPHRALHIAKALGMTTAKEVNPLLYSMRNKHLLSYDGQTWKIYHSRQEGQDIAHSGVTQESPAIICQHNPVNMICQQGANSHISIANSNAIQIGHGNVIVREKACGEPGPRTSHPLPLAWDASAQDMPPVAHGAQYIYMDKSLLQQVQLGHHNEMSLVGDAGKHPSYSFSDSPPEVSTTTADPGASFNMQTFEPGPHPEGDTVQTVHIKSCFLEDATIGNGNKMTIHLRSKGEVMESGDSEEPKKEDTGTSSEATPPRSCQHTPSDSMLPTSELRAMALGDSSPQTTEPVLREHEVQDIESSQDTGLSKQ
Kind of test: co-IP. To be noted: remark: other sources report otherwise.

Test [2] concerns the target T2, FLAG-tagged human ZBP1 (Flag-hZBP1) (human), Q9H171.
T2 chain: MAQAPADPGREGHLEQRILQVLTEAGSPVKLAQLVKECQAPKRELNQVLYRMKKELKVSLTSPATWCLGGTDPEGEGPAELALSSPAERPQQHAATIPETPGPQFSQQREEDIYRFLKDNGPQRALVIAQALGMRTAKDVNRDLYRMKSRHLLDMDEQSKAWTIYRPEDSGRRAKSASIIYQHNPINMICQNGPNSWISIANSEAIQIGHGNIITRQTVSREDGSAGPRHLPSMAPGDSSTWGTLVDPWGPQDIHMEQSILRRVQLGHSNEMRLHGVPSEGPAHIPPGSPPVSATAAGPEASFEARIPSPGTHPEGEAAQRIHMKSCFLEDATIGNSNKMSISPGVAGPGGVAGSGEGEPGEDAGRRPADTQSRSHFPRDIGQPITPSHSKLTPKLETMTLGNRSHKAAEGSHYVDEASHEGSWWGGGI
The test can be described thus: co-IP. To be noted: remark: other sources report otherwise.

B1: RIPK3 (endogenous, human cells), Q9Y572 1-518 (protein)
chain: MSCVKLWPSGAPAPLVSIEELENQELVGKGGFGTVFRAQHRKWGYDVAVKIVNSKAISREVKAMASLDNEFVLRLEGVIEKVNWDQDPKPALVTKFMENGSLSGLLQSQCPRPWPLLCRLLKEVVLGMFYLHDQNPVLLHRDLKPSNVLLDPELHVKLADFGLSTFQGGSQSGTGSGEPGGTLGYLAPELFVNVNRKASTASDVYSFGILMWAVLAGREVELPTEPSLVYEAVCNRQNRPSLAELPQAGPETPGLEGLKELMQLCWSSEPKDRPSFQECLPKTDEVFQMVENNMNAAVSTVKDFLSQLRSSNRRFSIPESGQGGTEMDGFRRTIENQHSRNDVMVSEWLNKLNLEEPPSSVPKKCPSLTKRSRAQEEQVPQAWTAGTSSDSMAQPPQTPETSTFRNQMPSPTSTGTPSPGPRGNQGAERQGMNWSCRTPEPNPVTGRPLVNIYNCSGVQVGDNNYLTMQQTTALPTWGLAPSGKGRGLQHPPPVGSQEGPKDPEAWSRPQGWYNHSGK
Regarding B1, the binding result in test [1] is on record as “binds”.

B2: RIPK1 (endogenous, human cells), Q13546 1-671 (protein)
chain: MQPDMSLNVIKMKSSDFLESAELDSGGFGKVSLCFHRTQGLMIMKTVYKGPNCIEHNEALLEEAKMMNRLRHSRVVKLLGVIIEEGKYSLVMEYMEKGNLMHVLKAEMSTPLSVKGRIILEIIEGMCYLHGKGVIHKDLKPENILVDNDFHIKIADLGLASFKMWSKLNNEEHNELREVDGTAKKNGGTLYYMAPEHLNDVNAKPTEKSDVYSFAVVLWAIFANKEPYENAICEQQLIMCIKSGNRPDVDDITEYCPREIISLMKLCWEANPEARPTFPGIEEKFRPFYLSQLEESVEEDVKSLKKEYSNENAVVKRMQSLQLDCVAVPSSRSNSATEQPGSLHSSQGLGMGPVEESWFAPSLEHPQEENEPSLQSKLQDEANYHLYGSRMDRQTKQQPRQNVAYNREEERRRRVSHDPFAQQRPYENFQNTEGKGTAYSSAASHGNAVHQPSGLTSQPQVLYQNNGLYSSHGFGTRPLDPGTAGPRVWYRPIPSHMPSLHNIPVPETNYLGNTPTMPFSSLPPTDESIKYTIYNSTGIQIGAYNYMEIGGTSSSLLDSTNTNFKEEPAAKYQAIFDNTTSLTDKHLDPIRENLGKHWKNCARKLGFTQSQIDEIDHDYERDGLKEKVYQMLQKWVMREGIKGATVGKLAQALHQCSRIDLLSSLIYVSQN
For B2, the binding entry in test [2] and in test [1] was “binds” throughout.
